Values of other authors as cited in patent US20230149379A1, “COMBINATION THERAPY FOR ACUTE MYELOID LEUKEMIA” (Celgene Corporation, priority 2020, published 2023).
At least one structure is not confirmed: it was looked up by name or label, or the drawing left a doubt.

System: R/R AML
Conditions: single agent, 32 subjects with R/R AML

For CC1(C)CCC(CN2CCN(c3ccc(C(=O)NS(=O)(=O)c4ccc(NCC5CCOCC5)c([N+](=O)[O-])c4)c(Oc4cnc5[nH]ccc5c4)c3)CC2)=C(c2ccc(Cl)cc2)C1 [Venetoclax, 4-[4-[[2-(4-chlorophenyl)-4,4-dimethylcyclohexen-1-yl]methyl]piperazin-1-yl]-N-[3-nitro-4-(oxanylmethylamino)phenyl]sulfonyl-2-(1H-pyrrolo[2,3-b]pyridin-5-yloxy)benzamide], the overall response rate is listed as 19%, the CRi rate (four patients) is listed as 13% and the CR rate (two CRs) is listed as 6%.
